From ChEMBL document CHEMBL3988442, “University of Dundee, Small-Polar-MMV Screening Library” (2021).

Protein sequences, listed by entry. Tags and fused reporters are not part of them. Residues count along the entry.
UniProt A4I591, 1-473: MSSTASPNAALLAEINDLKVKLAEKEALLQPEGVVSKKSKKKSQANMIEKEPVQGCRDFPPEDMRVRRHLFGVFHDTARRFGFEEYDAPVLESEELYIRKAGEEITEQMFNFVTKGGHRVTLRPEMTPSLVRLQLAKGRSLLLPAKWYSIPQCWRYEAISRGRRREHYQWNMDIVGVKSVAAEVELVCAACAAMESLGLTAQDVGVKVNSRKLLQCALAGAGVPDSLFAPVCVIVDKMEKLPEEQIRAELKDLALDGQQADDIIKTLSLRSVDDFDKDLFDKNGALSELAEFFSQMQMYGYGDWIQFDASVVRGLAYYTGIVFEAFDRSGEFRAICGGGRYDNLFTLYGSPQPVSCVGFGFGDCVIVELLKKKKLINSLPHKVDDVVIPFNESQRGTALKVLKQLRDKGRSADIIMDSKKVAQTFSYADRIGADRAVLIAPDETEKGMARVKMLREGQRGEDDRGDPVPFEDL
UniProt I6X8D2, whole entry: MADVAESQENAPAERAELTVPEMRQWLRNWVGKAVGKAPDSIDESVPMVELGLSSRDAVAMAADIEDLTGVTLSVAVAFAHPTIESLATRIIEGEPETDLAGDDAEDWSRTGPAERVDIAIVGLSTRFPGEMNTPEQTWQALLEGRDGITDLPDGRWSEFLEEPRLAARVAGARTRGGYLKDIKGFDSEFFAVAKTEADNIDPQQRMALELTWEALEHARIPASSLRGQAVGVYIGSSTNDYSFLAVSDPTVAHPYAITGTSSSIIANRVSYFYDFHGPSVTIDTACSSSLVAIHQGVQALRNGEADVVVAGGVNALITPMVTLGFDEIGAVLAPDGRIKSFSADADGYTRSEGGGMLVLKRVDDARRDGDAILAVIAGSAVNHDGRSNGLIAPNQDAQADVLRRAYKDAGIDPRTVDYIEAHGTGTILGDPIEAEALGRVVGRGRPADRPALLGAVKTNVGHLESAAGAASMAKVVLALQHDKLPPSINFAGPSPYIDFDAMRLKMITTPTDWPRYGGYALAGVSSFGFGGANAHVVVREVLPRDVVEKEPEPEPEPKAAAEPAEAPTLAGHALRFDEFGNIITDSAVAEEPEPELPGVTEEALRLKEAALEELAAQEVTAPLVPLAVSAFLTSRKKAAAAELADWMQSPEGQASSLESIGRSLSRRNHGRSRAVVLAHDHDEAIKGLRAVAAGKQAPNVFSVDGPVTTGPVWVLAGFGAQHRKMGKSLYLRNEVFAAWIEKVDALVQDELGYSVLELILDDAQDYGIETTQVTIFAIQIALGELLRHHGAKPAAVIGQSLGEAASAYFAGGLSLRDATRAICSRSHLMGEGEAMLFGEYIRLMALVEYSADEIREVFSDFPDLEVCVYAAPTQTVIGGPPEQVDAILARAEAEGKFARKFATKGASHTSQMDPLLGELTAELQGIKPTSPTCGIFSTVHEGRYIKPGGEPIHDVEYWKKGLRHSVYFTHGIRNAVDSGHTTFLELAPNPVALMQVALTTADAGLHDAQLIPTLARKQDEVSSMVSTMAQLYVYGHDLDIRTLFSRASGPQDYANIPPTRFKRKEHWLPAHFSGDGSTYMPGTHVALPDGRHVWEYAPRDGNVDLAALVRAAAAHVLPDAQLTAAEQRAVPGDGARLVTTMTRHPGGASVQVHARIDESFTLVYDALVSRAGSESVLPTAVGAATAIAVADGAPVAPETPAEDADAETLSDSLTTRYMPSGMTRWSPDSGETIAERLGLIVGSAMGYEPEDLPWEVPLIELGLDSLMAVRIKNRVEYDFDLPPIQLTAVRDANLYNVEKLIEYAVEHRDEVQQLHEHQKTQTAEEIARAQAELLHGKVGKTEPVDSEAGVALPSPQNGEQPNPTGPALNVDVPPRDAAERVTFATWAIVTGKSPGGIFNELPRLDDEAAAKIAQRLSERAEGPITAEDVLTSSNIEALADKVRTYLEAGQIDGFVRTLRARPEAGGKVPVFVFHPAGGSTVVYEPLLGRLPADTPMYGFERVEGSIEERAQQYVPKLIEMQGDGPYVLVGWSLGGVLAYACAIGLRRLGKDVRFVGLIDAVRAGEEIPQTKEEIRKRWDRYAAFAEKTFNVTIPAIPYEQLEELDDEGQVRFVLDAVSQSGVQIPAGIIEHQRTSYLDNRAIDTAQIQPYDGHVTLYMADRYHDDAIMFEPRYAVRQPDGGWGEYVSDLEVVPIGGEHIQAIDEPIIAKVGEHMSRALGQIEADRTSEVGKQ
UniProt P9WFT3, whole entry: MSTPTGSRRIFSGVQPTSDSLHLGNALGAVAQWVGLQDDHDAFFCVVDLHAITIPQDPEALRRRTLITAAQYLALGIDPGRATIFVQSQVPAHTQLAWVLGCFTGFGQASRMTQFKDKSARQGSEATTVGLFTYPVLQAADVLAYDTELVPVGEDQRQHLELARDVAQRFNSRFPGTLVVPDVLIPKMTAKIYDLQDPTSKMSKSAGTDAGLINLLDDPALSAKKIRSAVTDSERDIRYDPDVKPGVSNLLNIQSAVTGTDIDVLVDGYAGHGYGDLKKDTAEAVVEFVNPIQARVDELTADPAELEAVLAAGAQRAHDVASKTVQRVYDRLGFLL
UniProt Q4DA54, 1-478: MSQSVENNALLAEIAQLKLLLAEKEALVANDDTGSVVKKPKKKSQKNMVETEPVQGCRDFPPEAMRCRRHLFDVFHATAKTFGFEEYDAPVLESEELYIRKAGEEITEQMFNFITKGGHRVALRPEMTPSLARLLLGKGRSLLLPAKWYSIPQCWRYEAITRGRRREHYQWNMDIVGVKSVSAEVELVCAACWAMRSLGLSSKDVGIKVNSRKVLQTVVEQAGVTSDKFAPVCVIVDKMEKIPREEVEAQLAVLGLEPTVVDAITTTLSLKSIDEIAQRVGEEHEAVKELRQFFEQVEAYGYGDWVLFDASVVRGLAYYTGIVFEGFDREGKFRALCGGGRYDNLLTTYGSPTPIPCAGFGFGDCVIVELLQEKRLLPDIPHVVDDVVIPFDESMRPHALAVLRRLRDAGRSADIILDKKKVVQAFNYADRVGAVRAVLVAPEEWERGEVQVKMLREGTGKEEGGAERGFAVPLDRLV

Results are given as percent effect.
The record does not define 0% and 100%; most values in the screen are far below 50% and negative numbers occur (in some assays of this library far below -100).
Compounds were drawn at random from those tested, without regard to their results.
A dash means the value is not listed here; it may have been measured.

LiHisRS: 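Enzyme assay of histidyl-tRNA synthetase; the read-out is not stated. Target: Histidine-tRNA ligase, Leishmania infantum (UniProt A4I591). Concentration: 30 µM. The record gives no direction; compounds that gave an IC50 in retests scored well above the rest, so higher reads as stronger inhibition. The assay is labelled LdHisRS but filed under L. infantum. Size under these conditions: about 69,000 compounds, about 410 of them at 50% or above in at least one test.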
Pks13 thioesterase: 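Polyketide synthase Pks13, Mycobacterium tuberculosis (UniProt I6X8D2). Enzyme assay of the thioesterase domain of polyketide synthase 13; the read-out is not stated. Concentration: 30 µM. Higher reads as stronger inhibition (inferred from which compounds were picked for retests). About 67,000 compounds were tested under these conditions; 0.46% (about 300) showed 50% or more at least once.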
MtTrpRS: 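Tryptophan-tRNA ligase, Mycobacterium tuberculosis (UniProt P9WFT3). Enzyme assay of tryptophanyl-tRNA synthetase; the read-out is not stated. Tested at 10 µM. Direction is not recorded; retested compounds ran higher, which suggests that high means inhibition. About 65,000 compounds were tested under these conditions; 0.098% (about 64) showed 50% or more at least once.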
TcHisRS: 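Enzyme assay of histidyl-tRNA synthetase; the read-out is not stated. Target: Histidine-tRNA ligase, Trypanosoma cruzi CL Brener (UniProt Q4DA54). Compounds at 30 µM. Higher reads as stronger inhibition (inferred: compounds with an IC50 in retests scored well above the rest). Size under these conditions: about 69,000 compounds, about 31 of them at 50% or above in at least one test.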

| # | compound | LiHisRS | Pks13 thioesterase | MtTrpRS | TcHisRS |
|---|---|---|---|---|---|
| 1 | `Cc1nonc1CN(C)CC1(O)CCCN(CCC2CCCCC2)C1=O` (stereo not drawn) | 16.5% | -11.65% | -0.8881% | 2.905% |
| 2 | `N#Cc1c(F)cccc1Nc1cnn(CC(N)=O)c1` | 22.22% | -0.896% | 4.242% | 0.6135% |
| 3 | `O=C(c1cnc(NCc2cccnc2)c(Cl)c1)N1CCCCC1` | 14.58% | -20.28% | 2.511% | 5.063% |
| 4 | `COCCOc1ccc(NC(=O)C2CC(=O)N(CC3CC3)C2)cn1` (stereo not drawn) | 16.07% | - | 19.77% | 5.814% |
| 5 | `CCOc1nn(CC)cc1-c1nnc(SCC)n1C` | 17.2% | -17.23% | -1.75% | 15.03% |
| 6 | `CCN(CC)S(=O)(=O)N1CC[C@H](c2ccccc2)[C@@H]2[C@H]1CCCCN2C` | 8.511% | 5.046% | -1.795% | 10.9% |
| 7 | `Cc1ccc(C(=O)N2CC(C)(C)[C@@](C)(O)C2)cc1N1CCNC1=O` | 7.292% | -140.6% | 2.829% | 6.704% |
| 8 | `COCC(c1ccccn1)N(C)C(=O)c1cc(-c2ccccc2O)n[nH]1` (stereo not drawn) | 4.225% | -29.91% | -3.44% | 7.182% |
| 9 | `COCC(=O)N1C[C@H]2CNC[C@@]2(C(=O)NCc2c(C)noc2C)C1` | 24.29% | -12.88% | -3.249% | 5.319% |
| 10 | `COc1ccc(C)cc1C(=O)N1CCCC(n2nc(C)nc2C)C1` (stereo not drawn) | 1.695% | -5.247% | -2.865% | 3.429% |
| 11 | `Cc1noc(C)c1CN1CCc2ncnc(-c3ccc(F)cc3)c2CC1` | 20.91% | -18.66% | - | 9.524% |
| 12 | `c1cnnc(N2CCCC(NCc3ccc(-n4cccn4)cc3)C2)c1` (stereo not drawn) | 10.67% | -5.413% | -1.329% | 1.132% |
| 13 | `O=C1CCCc2occ(C(=O)N3CCCC(O)(CO)C3)c21` (stereo not drawn) | 11.43% | -11.12% | 11.66% | 1.299% |
| 14 | `O=C(Nc1ccc(F)cc1)NC1(CCO)CCOCC1` | 12.28% | -5.21% | -3.995% | 9.244% |
| 15 | `O=C(c1ccno1)N1C[C@@H](F)[C@@H](OCc2nc3ccccc3o2)C1` | 12.16% | -11.39% | -2.352% | -1.087% |
| 16 | `CC(C)(C)c1cn2c(n1)C(CNCc1cnn3ccccc13)CCC2` (stereo not drawn) | 15.5% | 4.593% | 2.053% | -2.381% |
| 17 | `Cc1noc(CCNC(=O)NCc2ccc(OC3CCCC3)cc2)n1` | 7.143% | -11.86% | -6.137% | 2.128% |
| 18 | `Cc1csc(C2(NCc3nc(-c4ccco4)no3)CCCC2)n1` | 1.754% | 2.619% | -7.385% | 9.244% |
| 19 | `CCNc1ncc(CN(Cc2ccccc2)CC(C)CO)cn1` (stereo not drawn) | 14.29% | -15.17% | -2.155% | 6.186% |
| 20 | `CC1CN(Cc2ccccc2)CCCN1CCS(C)(=O)=O` (stereo not drawn) | -24.66% | -1.357% | 2.601% | 3.175% |
| 21 | `Nc1nc2c(c(NC(=O)Nc3ccccc3)n1)CCCC2` | 8.696% | 9.167% | 0.5319% | 2.062% |
| 22 | `Cc1ncc2c(n1)CN(CCOc1ccc3c(c1)CCC(=O)N3)CC2` | 30.14% | -24.41% | -2.981% | 7.65% |
| 23 | `CN(C)C(=O)N1C[C@H]2CN(Cc3cccc(F)c3)C(=O)[C@H]2C1` | 10.53% | -10.85% | -0.959% | 3.867% |
| 24 | `COCCCC1(CO)CCCN(CCS(C)(=O)=O)C1` (stereo not drawn) | 9.615% | -4.147% | 6.058% | 3.306% |
| 25 | `CC(=O)N1CCC(c2cccc(-c3cccc(C(=O)O)c3)n2)CC1` | 2.837% | 3.875% | -1.171% | 1.128% |
| 26 | `CCc1ccc2c(c1)C(CCNC(=O)Cc1ccc(F)cc1)C(=O)N2` (stereo not drawn) | -10.53% | -11.82% | 4.886% | 11.73% |
| 27 | `CN(C)c1cc(C(=O)Nc2cccnc2N2CCSCC2)ccn1` | 40.96% | -19.25% | -1.098% | 13.81% |
| 28 | `CC(C)(C)CN[C@@H]1CO[C@H](CNC(=O)C2CCCC2)[C@H]1O` | 14.86% | -18.86% | -4.173% | 0% |
| 29 | `CN1CC[C@]2(CN(C(=O)[C@H]3CCCO3)C[C@H]2c2ccccc2)C1=O` | 11.11% | -27.58% | -2.186% | 1.604% |
| 30 | `CS(=O)(=O)CCc1ncnn1-c1ccc(F)c(Cl)c1` | -17.14% | -19.49% | -2.183% | 6.122% |
| 31 | `COCC1CCN(S(=O)(=O)N2C[C@@H](C)[C@](O)(C3CC3)C2)CC1` | 13.68% | -42.89% | -2.355% | 5.946% |
| 32 | `CCOC(=O)CN1CCC2(CCCN(CCOc3ccccc3)C2)C1` (stereo not drawn) | 21.1% | -30.54% | -3.98% | 10.1% |
| 33 | `Cc1cc(C(=O)NCC2Cn3nnc(C)c3CO2)no1` (stereo not drawn) | -12.33% | -33.53% | 0.08032% | -13.86% |
| 34 | `O=C(NCCN1CCOCC1)c1nc(-c2ccc3[nH]ccc3c2)no1` | 21.05% | -2.14% | -1.471% | -0.5848% |
| 35 | `CCn1cc(S(=O)(=O)Nc2cccnc2-n2cccn2)nc1C` | 15.49% | -33.64% | 2.926% | 7.006% |
| 36 | `CC(=O)c1ccc(CN2CC(Oc3ccccc3C)C2)cc1` | 21.98% | -12.1% | -0.1325% | 9.036% |
| 37 | `O=C(CN1CCN(C(=O)Cc2ccc3c(c2)OCCO3)CC1)NC1CC1` | 16.44% | -6.796% | 1.839% | -3.817% |
| 38 | `CCOc1ccnc(N2CCN(CCOC)CC2)n1` | 7.895% | -2.816% | -0.1037% | 5.172% |
| 39 | `Cc1ccc(CN2Cc3nnn(C)c3C(COCC3CC3)C2)o1` (stereo not drawn) | 42.47% | -28.98% | 0.7229% | 13.86% |
| 40 | `Cc1nc(CN2CCCN(Cc3nc4ccccc4o3)CC2)no1` | 27.14% | -3.363% | -5.235% | -1.064% |
| 41 | `c1cnc(N2CCC3(CC2)CC(NCC2CC2)c2ccccc23)nc1` (stereo not drawn) | 22.81% | 2.185% | 7.541% | 7.527% |
| 42 | `CCc1cnc(N2C[C@@H]3[C@@H](C(=O)N(C)C)CCS(=O)(=O)[C@@H]3C2)nc1` | 7.921% | -6.168% | - | 8.543% |
| 43 | `CN(C)CCN1C[C@@H]2CN(C(=O)c3ccsc3)C[C@@H]2C1=O` | 8.491% | -3.736% | -0.58% | 4.184% |
| 44 | `CCN1CCN(C2CCN(Cc3cc(C)on3)CC2)C1=O` | 1.124% | -15.6% | 4.642% | -0.7519% |
| 45 | `COCCN(C)C(=O)Nc1cc2c(cc1SC)OCCO2` | 15.97% | -21.52% | -6.783% | 0.9804% |
| 46 | `CN(Cc1ccc(C(=O)Nc2sccc2C#N)cc1)Cc1ccno1` | 9.333% | -1.365% | -3.625% | 8.671% |
| 47 | `CCn1cc(CN2CCCN(C(=O)C3(C#N)CCCCC3)CC2)cn1` | 10.99% | -52.44% | 0.3974% | 9.036% |
| 48 | `O=C(Cc1cccnc1)NC1COc2ccccc2C1=O` (stereo not drawn) | 5.479% | -5.113% | -3.641% | 6.349% |
| 49 | `COCCN1CCC(CN(CC2CCCO2)C(=O)CCC(F)(F)F)CC1` (stereo not drawn) | 15.73% | -0.2383% | 0.1467% | 4.523% |
| 50 | `CCc1ncncc1C(=O)N1CCCC(n2nc(C)nc2C)C1` (stereo not drawn) | 0% | -14.5% | -8.944% | 1.765% |
| 51 | `Cc1nn(C)c(C)c1CN(Cc1cccn1-c1cccnc1)C(C)C` | 29.58% | -5.117% | 4.914% | 1.657% |
| 52 | `c1ccc(CN2CCCn3nnc(COc4ccccn4)c3C2)nc1` | 17.95% | -21.41% | -0.3526% | 1.604% |
| 53 | `Cc1cnc(C(=O)NCc2ccc3c(c2)CCCN3C)cn1` | 19.3% | -0.2108% | 1.372% | 0.2865% |
| 54 | `COCCCNC(=O)CN(C)C1CCCN(c2cccnn2)C1` (stereo not drawn) | 13.39% | -9.779% | -1.247% | 6.358% |
| 55 | `CNC(=O)C1(Cc2cc(C(C)C)no2)CCN(Cc2ccccn2)C1` (stereo not drawn) | 4.225% | 6.341% | -3.43% | 1.515% |
| 56 | `CCN(Cc1ccco1)C(=O)NCC(c1cccs1)N(C)C` (stereo not drawn) | 17.14% | -4.654% | 11.87% | 1.299% |
| 57 | `CCCN1C[C@H]2CC[C@@H]1CN(Cc1ccc(-n3cccn3)cc1)C2` | 50.83% | -16.64% | 13% | 18.42% |

Once more, the final 4:

compound,LiHisRS,Pks13 thioesterase,MtTrpRS,TcHisRS
COCCCNC(=O)CN(C)C1CCCN(c2cccnn2)C1 (stereo not drawn),13.39%,-9.779%,-1.247%,6.358%
CNC(=O)C1(Cc2cc(C(C)C)no2)CCN(Cc2ccccn2)C1 (stereo not drawn),4.225%,6.341%,-3.43%,1.515%
CCN(Cc1ccco1)C(=O)NCC(c1cccs1)N(C)C (stereo not drawn),17.14%,-4.654%,11.87%,1.299%
CCCN1C[C@H]2CC[C@@H]1CN(Cc1ccc(-n3cccn3)cc1)C2,50.83%,-16.64%,13%,18.42%